Percent effect of library compounds

Protein sequences, listed by entry. Tags and fused reporters are not part of them. Residues count along the entry.
UniProt Q8IDJ8, 1-583: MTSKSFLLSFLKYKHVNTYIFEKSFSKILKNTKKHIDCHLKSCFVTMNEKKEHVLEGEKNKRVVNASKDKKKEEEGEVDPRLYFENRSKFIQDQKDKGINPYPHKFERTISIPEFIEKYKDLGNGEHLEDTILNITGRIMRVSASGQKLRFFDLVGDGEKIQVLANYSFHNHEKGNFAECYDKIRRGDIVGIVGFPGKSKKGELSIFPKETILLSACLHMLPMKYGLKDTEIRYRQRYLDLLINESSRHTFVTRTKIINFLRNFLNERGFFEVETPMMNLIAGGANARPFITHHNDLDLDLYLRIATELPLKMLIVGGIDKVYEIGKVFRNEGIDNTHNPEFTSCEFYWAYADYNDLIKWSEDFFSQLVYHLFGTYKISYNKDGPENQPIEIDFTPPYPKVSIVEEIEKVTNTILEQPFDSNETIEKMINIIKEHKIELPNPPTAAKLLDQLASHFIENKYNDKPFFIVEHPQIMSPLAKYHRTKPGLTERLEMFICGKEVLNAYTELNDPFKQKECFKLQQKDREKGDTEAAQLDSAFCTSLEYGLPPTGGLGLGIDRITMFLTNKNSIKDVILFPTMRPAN
UniProt P9WFT3, whole entry: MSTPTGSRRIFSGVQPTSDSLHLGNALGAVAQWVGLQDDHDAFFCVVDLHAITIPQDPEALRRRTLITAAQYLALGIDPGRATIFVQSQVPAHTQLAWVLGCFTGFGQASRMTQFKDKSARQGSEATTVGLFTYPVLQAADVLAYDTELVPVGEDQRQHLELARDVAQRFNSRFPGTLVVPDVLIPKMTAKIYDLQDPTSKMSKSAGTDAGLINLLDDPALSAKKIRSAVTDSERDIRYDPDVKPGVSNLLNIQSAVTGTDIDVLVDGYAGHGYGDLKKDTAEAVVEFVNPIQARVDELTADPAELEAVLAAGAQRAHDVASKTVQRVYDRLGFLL
UniProt P9WPC5, whole entry: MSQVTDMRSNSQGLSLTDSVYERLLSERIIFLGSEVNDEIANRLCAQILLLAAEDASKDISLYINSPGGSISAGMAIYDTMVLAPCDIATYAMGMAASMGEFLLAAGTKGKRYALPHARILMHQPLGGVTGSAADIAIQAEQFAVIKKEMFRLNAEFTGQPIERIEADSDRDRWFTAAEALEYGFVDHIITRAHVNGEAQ
UniProt P9WPC3, whole entry partner: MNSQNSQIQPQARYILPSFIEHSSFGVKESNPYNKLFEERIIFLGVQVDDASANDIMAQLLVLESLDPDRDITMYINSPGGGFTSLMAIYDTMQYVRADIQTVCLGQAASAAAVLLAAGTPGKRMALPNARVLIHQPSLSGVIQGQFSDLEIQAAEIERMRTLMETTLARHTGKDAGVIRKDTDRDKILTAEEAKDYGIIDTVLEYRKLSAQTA

Measurements from “University of Dundee, Small-Polar-MMV Screening Library” (2021), ChEMBL document CHEMBL3988442.

PfKRS1: 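Lysine-tRNA ligase, Plasmodium falciparum 3D7 (UniProt Q8IDJ8). Enzyme assay of the cytosolic lysyl-tRNA synthetase in 384-well plates, read by luminescence. Compounds at 30 µM. Direction is inferred from only a few compounds that gave an IC50; most scored high, so higher reads as stronger inhibition. Size under these conditions: about 69,000 compounds, about 49 of them at 50% or above in at least one test.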
MtTrpRS: 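Enzyme assay of tryptophanyl-tRNA synthetase; the read-out is not stated. Target: Tryptophan-tRNA ligase, Mycobacterium tuberculosis (UniProt P9WFT3). Compounds at 10 µM. Higher most likely means stronger inhibition; the record gives no direction and few retests gave an IC50. Of about 65,000 compounds tested this way, about 64 (0.098%) reached 50% or more in at least one test.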
ClpP1P2: 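ClpP1P2, Mycobacterium tuberculosis (UniProt P9WPC5 and UniProt P9WPC3). Protease assay of ClpP1P2, read by the AMC dye that it sets free. Compounds at 50 µM. Direction is inferred from only a few compounds that gave an IC50; most scored high, so higher reads as stronger inhibition. Most other retested compounds had strongly negative values. Size under these conditions: about 69,000 compounds, about 10 of them at 50% or above in at least one test.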

Values are the deposited “Percent Effect”, in %.
How 0% and 100% were set is not recorded. Most values in the screen are low, and negative values occur.
The compounds are a random part of those screened.

With Cc1n[nH]c(C)c1Sc1ccccc1NC(=O)N1CCN(C)CC1 the screen gave PfKRS1: 0.8228%; MtTrpRS: -3.333%; ClpP1P2: 4.281%.
With CC(C)c1noc(C2CCCN2C(=O)CN2CCc3ccccc32)n1 (stereo unspecified) the screen gave PfKRS1: -1.454%; MtTrpRS: -1.037%; ClpP1P2: 11.45%.
With Cc1nn(C)c(C)c1C(=O)NCc1ccnc(OCC(F)(F)F)c1 the screen gave PfKRS1: 1.056%; MtTrpRS: -0.6905%; ClpP1P2: -27.08%.
With Cc1cc(C(=O)N2CCCCC2C)ccc1NC(=O)N1CCOCC1 (stereo unspecified) the screen gave PfKRS1: 1.618%; MtTrpRS: -0.5801%; ClpP1P2: -28.4%.
With CCN(C)C(=O)C1(c2ccc(F)cc2F)CCC1 the screen gave PfKRS1: 1.751%; MtTrpRS: -1.043%; ClpP1P2: 13.09%.
With CCc1nc(CN2CCOC(Cn3cncn3)C2)no1 (stereo unspecified) the screen gave PfKRS1: -0.9886%; MtTrpRS: 16%; ClpP1P2: 17.67%.
With Cc1nc(C2CCCN2C(=O)c2ccc(F)cc2)ncc1C(N)=O (stereo unspecified) the screen gave PfKRS1: 0.4944%; ClpP1P2: 5.864%.
With O=C(NCc1c(F)cccc1F)C1CN(C(=O)c2cnccn2)C1 the screen gave PfKRS1: 4.538%; MtTrpRS: -4.331%; ClpP1P2: -2.635%.
With Cc1cnc(C(=O)N2C[C@H]3CN(Cc4cccc(F)c4)C(=O)[C@H]3C2)cn1 the screen gave PfKRS1: 8.479%; MtTrpRS: -3.132%; ClpP1P2: 3.728%.
With OCCN(Cc1nc(-c2ccc3c(c2)OCO3)no1)Cc1cccs1 the screen gave PfKRS1: -1.327%; MtTrpRS: 1.359%; ClpP1P2: -5.83%.
With COc1c(CNC2CCCOc3ccccc32)c(C)nn1C (stereo unspecified) the screen gave PfKRS1: 1.767%; MtTrpRS: 0.8382%; ClpP1P2: -10.65%.
With Cc1cccc(C(=O)N2C[C@@H](C)[C@@]3(CCN(c4ccsc4)C3=O)C2)n1 the screen gave PfKRS1: -1.478%; MtTrpRS: 0%; ClpP1P2: 3.143%.
With CCOCCCNC(=O)C(NC(=O)Cc1cccs1)c1ccccc1 (stereo unspecified) the screen gave PfKRS1: 2.859%; MtTrpRS: -1.431%; ClpP1P2: 8.6%.
With Cn1cccc1C(=O)NCc1cnc2n1CCN(C(=O)N1CCCC1)C2 the screen gave PfKRS1: -2.041%; MtTrpRS: 3.253%; ClpP1P2: -3.676%.
With CCc1ccsc1CNC(=O)CNC(=O)C(C)(C)C the screen gave PfKRS1: 5.699%; MtTrpRS: 0.7802%; ClpP1P2: -5.586%.
With COc1ccc(CNC(=O)N(C)CC(C)(C)O)cc1OC the screen gave PfKRS1: 6.724%; MtTrpRS: 0.7712%; ClpP1P2: -8.199%.
With COc1ccc(C#N)cc1CSCCN1CCOCC1 the screen gave PfKRS1: 1.078%; MtTrpRS: 1.001%; ClpP1P2: 0.2112%.
With Cc1ccc(CN2C[C@H](N(C)Cc3cncnc3)[C@H]3OCCC[C@H]32)o1 the screen gave PfKRS1: -0.2688%; MtTrpRS: -1.647%; ClpP1P2: -10.21%.
With Cc1cc(CN2CCN(C(=O)Nc3cccnc3)CC2)on1 the screen gave PfKRS1: 4.645%; MtTrpRS: -3.931%; ClpP1P2: 12.16%.
With COCC(C)NC(=O)CN1CCCC1 (stereo unspecified) the screen gave PfKRS1: 3.566%; MtTrpRS: 2.991%; ClpP1P2: -0.1259%.
With Cc1nsc(N2CCN(C(=O)Nc3ccc4[nH]ccc4c3)CC2)n1 the screen gave PfKRS1: 1.405%; MtTrpRS: -5.301%; ClpP1P2: -3.828%.
With O=C(CN1CCCC1COc1ccccc1)NCc1ccccn1 (stereo unspecified) the screen gave PfKRS1: 2.72%; MtTrpRS: 3.902%; ClpP1P2: -8.771%.
With CCOCc1ccc(CNc2nc(OC)ncc2Cl)cc1 the screen gave PfKRS1: 4.762%; MtTrpRS: -7.424%; ClpP1P2: -5.195%.
With COc1nc(C)cc(C)c1CNC(=O)N(C)Cc1cnn(C)c1 the screen gave PfKRS1: 4.235%; MtTrpRS: -1.458%; ClpP1P2: 6.455%.
With NC(=O)COc1ccc(CNCc2ccc(F)c(F)c2)cc1 the screen gave PfKRS1: 2.896%; MtTrpRS: 5.498%; ClpP1P2: 2.173%.
With CCNc1ncc(C(=O)NCc2csc(-c3ncccn3)n2)cn1 the screen gave PfKRS1: 6.259%; MtTrpRS: -2.714%; ClpP1P2: -1.398%.
With CN(C)CCCn1ccc(-c2cccc(-c3ccccn3)c2)n1 the screen gave PfKRS1: 3.799%; MtTrpRS: -0.8683%; ClpP1P2: -27.29%.
With CCc1cccc(NC(=O)N2CCn3cnc(COC)c3C2)c1 the screen gave PfKRS1: 2.043%; MtTrpRS: 0.6785%; ClpP1P2: -10.79%.
With Cc1nc(CN2C(=O)CC[C@@H]3[C@H]2CCN3C(=O)C2CCCO2)cs1 (stereo partly specified) the screen gave PfKRS1: 3.451%; MtTrpRS: 5.947%; ClpP1P2: -3.265%.
With CN(Cc1nc(-c2ccccc2)c[nH]1)C(=O)NCC(=O)NC(C)(C)C the screen gave PfKRS1: -0.2982%; MtTrpRS: 1.238%; ClpP1P2: -7.049%.
With CCN1CC[C@@]2(C(=O)N3CCOCC3)CCN(C(=O)C(C)C)CC[C@@H]12 the screen gave PfKRS1: -1.518%; MtTrpRS: 1.89%; ClpP1P2: 0.512%.
With COc1ccc(F)cc1C(=O)N1CCCC(n2nc(C)nc2C)C1 (stereo unspecified) the screen gave PfKRS1: 10.21%; MtTrpRS: -0.08136%; ClpP1P2: -1.128%.
With Cc1nc(N2CCOCC2)nc(C)c1NC(=O)COc1ccccc1 the screen gave PfKRS1: 1.573%; MtTrpRS: -1.14%; ClpP1P2: 1.461%.
With Cc1cnn(CCC(=O)N2CCCC(c3ccn[nH]3)C2)c1 (stereo unspecified) the screen gave PfKRS1: -0.2188%; MtTrpRS: -3.531%; ClpP1P2: -25.33%.
With Cc1cccc2c1cnn2CCCNC(=O)c1ccnn1C the screen gave PfKRS1: -1.158%; MtTrpRS: 3.109%; ClpP1P2: -2.218%.
With O=C(c1cccnc1)N1CCc2ncnc(N3CCOCC3)c2CC1 the screen gave PfKRS1: 0.9981%; MtTrpRS: -4.321%; ClpP1P2: 5.892%.